No constants are given. Whether binding was seen depends on the method and setting. Binding seen in cells or lysates may run through a third protein. Some binding calls cover weakened binding; strength is not graded here.
Tests used:
[1] = target: BZLF1 protein, wild type, epitope-tagged (Epstein-Barr virus) (UniProt P03206); experiment: co-IP; lysates of 293T cells transiently expressing tagged proteins; immunoprecipitation and immunoblotting with the indicated antibodies; lysis buffer 50 mM Tris-HCl pH 7.6, 120 mM NaCl, 0.1% NP40, 1 mM EDTA; washed with NET-gel buffer
[2] = target: N-terminal His- and Flag-tagged BZLF1 protein (RHF-BZLF1) (Epstein-Barr virus) (UniProt P03206); experiment: pull-down
[3] = target: BZLF1 protein in lytic infection-induced Tet-BZLF1/B95-8 cells (Epstein-Barr virus) (UniProt P03206); experiment: co-IP
[4] = target: BZLF1 protein in lytic replication-induced 293/EBV cells (Epstein-Barr virus) (UniProt P03206); experiment: co-IP; 293/EBV cells, lytic infection induced by transfection of BZLF1 protein expression plasmid; MG132 for 4 h before harvesting, harvested 48 h post-transfection; IP and IB with the indicated antibodies

Protein sequences, listed by entry. Tags and fused reporters are not part of them.
UniProt P03206: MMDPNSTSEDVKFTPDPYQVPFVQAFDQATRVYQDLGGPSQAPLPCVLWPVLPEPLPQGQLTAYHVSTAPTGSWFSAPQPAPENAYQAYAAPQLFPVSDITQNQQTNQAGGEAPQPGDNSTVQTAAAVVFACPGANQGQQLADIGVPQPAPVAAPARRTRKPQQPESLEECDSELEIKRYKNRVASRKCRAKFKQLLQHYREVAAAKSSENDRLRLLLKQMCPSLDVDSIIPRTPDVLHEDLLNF
UniProt Q93034: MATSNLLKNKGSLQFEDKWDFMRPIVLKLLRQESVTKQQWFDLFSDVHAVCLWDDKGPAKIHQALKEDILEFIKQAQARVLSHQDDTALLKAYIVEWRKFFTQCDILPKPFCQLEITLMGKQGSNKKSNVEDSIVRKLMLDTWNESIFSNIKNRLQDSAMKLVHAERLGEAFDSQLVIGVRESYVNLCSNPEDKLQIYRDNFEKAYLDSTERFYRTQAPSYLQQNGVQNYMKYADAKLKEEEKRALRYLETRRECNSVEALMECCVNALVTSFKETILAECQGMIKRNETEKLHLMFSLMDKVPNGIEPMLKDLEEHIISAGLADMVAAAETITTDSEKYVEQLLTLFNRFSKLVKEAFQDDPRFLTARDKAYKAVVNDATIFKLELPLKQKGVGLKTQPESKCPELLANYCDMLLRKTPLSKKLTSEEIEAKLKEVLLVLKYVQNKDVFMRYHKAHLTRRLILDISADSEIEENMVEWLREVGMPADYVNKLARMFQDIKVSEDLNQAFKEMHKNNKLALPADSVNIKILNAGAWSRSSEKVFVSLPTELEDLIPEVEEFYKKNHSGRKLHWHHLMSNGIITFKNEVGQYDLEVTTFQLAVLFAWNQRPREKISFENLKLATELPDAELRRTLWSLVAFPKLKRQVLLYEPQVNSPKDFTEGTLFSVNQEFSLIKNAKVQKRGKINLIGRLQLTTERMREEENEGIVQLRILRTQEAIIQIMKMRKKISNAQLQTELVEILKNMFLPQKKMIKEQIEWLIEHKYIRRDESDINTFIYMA
UniProt Q15370: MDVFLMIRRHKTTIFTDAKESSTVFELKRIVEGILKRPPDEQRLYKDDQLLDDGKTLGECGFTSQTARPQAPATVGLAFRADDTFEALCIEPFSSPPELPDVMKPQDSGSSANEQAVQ
UniProt U3FS08: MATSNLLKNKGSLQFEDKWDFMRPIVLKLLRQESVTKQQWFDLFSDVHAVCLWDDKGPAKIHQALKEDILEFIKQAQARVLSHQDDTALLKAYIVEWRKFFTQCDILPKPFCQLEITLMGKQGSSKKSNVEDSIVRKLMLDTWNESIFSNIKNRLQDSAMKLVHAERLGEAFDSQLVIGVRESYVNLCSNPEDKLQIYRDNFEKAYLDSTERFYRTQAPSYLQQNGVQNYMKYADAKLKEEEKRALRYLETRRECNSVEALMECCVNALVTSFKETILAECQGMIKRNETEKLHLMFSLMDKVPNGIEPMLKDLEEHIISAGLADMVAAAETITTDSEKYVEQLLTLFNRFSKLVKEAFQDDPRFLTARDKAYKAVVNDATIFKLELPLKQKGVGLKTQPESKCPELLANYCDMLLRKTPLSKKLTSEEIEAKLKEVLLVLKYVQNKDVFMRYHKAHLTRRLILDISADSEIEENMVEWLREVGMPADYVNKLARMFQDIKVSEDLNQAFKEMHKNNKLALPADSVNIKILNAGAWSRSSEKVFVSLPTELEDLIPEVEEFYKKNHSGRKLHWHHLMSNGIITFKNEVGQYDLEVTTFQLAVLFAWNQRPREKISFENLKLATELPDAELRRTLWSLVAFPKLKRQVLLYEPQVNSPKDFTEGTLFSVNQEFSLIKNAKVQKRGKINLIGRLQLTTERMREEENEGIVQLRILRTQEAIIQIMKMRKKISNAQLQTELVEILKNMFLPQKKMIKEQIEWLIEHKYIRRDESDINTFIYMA
UniProt Q9UBF6: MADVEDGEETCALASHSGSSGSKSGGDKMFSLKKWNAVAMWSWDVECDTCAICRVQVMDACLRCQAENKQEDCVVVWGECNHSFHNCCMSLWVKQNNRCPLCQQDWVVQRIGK

## Cul5, epitope-tagged (from UniProt Q93034 1-780)
[1]
  binding: binds

## Elongin B (baculovirus) (from UniProt Q15370 1-118)
[2]
  binding: binds

## Cul5, endogenous in B95-8 cells (from UniProt U3FS08 1-780)
[3]
  binding: binds

## Cul5, endogenous in 293/EBV cells (from UniProt Q93034 1-780)
[4]
  binding: binds

## 3×myc-Rbx2 (from UniProt Q9UBF6 1-113)
[2]
  binding: binds

## HA-Cul5 (from UniProt Q93034 1-780)
[2]
  binding: binds
